Laboratory results as given in PubChem BioAssay (NCATS).
This list was built around the results that the source calls inconclusive (neither active nor inactive); the mix of calls is not that of the screen. For part of these data: Potencies beside an inconclusive call are fits to weak or partial responses and may not hold up. Calls of active or inactive are those of the source. Calls follow the shape of the dose curve; as a rule, active = well fitted curve in the direction sought with a large enough effect; inconclusive = small, poorly fitted or top-dose-only effect, or another doubt; inactive = no such curve, though single readings can be large; an effect the other way counts as inactive or inconclusive.

Tests used:
[1] = Quantitative High-Throughput drug screen in 47 multiple myeloma cell lines against the NCATS MIPE library collection: MOLP8_DSMZ cell viability assay (AID 1918977); also: nearly all actives have a fitted effect of over 45% in size;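 as to viability (% of control): 100% = DMSO-only wells and 0% = media-only wells without cells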
Summary of the method: (§1)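 Cells were exposed to library compounds for 48 hours, after which ATP was measured by CellTiter-Glo. Signal was taken as median relative luminescence units.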

[2] = Quantitative High-Throughput drug screen in 47 multiple myeloma cell lines against the NCATS MIPE library collection: LP1_DSMZ cell viability assay (AID 1918982); also: nearly all actives have a fitted effect of over 35% in size
Summary of the method: as §1

[3] = Quantitative High-Throughput drug screen in 47 multiple myeloma cell lines against the NCATS MIPE library collection: KMS28PE_JCRB cell viability assay (AID 1918983); also: nearly all actives have a fitted effect of over 35% in size
Summary of the method: as §1

[4] = Quantitative High-Throughput drug screen in 47 multiple myeloma cell lines against the NCATS MIPE library collection: L363_DSMZ cell viability assay (AID 1918984); details: L363 myeloma viability, CellTiter-Glo ATP luminescence, 48 h; viability (% of control): at 45.8 µM (top of the series); also: nearly all actives have a fitted effect of over 40% in size
Summary of the method: as §1

[5] = Quantitative High-Throughput drug screen in 47 multiple myeloma cell lines against the NCATS MIPE library collection: KMS34_JCRB cell viability assay (AID 1918985); details: KMS34 myeloma viability, CellTiter-Glo ATP luminescence, 48 h; viability, percent of control: at 45.8 µM; also: nearly all actives have a fitted effect of over 40% in size
Summary of the method: as §1

[6] = Quantitative High-Throughput drug screen in 47 multiple myeloma cell lines against the NCATS MIPE library collection: OCIMY7_PLB cell viability assay (AID 1918987); details: OCI-MY7 myeloma viability, CellTiter-Glo ATP, 48 h; viability (% of DMSO): at 45.8 µM unless noted; also: nearly all actives have a fitted effect of over 65% in size
Summary of the method: as §1

[7] = Quantitative High-Throughput drug screen in 47 multiple myeloma cell lines against the NCATS MIPE library collection: OCIMY5_PLB cell viability assay (AID 1918988); details: OCI-MY5 myeloma viability, ATP luminescence, 48 h; viability, % of control: at 45.8 µM; also: nearly all actives have a fitted effect of over 65% in size
Summary of the method: as §1

[8] = Quantitative High-Throughput drug screen in 47 multiple myeloma cell lines against the NCATS MIPE library collection: SKMM1_PLB cell viability assay (AID 1919863); details: SKMM1 myeloma viability, CellTiter-Glo ATP, 48 h; viability: active compounds read low; also: nearly all actives have a fitted effect of over 35% in size
Summary of the method: as §1

[9] = Quantitative High-Throughput drug screen in 47 multiple myeloma cell lines against the NCATS MIPE library collection: XG1_PLB cell viability assay (AID 1919866); also: nearly all actives have a fitted effect of over 35% in size
Summary of the method: as §1

[10] = Quantitative High-Throughput drug screen in 47 multiple myeloma cell lines against the NCATS MIPE library collection: UTMC2_PLB cell viability assay (AID 1919868); details: CellTiter-Glo ATP luminescence, 48 h; viability (% of DMSO control): at 45.8 µM; also: nearly all actives have a fitted effect of over 55% in size;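 as to viability (% of DMSO control): 100% = DMSO-only wells and 0% = media-only wells without cells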
Summary of the method: as §1

[11] = Quantitative High-Throughput drug screen in 47 multiple myeloma cell lines against the NCATS MIPE library collection: PCM6_Riken cell viability assay (AID 1919870); details: CellTiter-Glo ATP, 48 h; viability (% of control): at 45.8 µM; also: nearly all actives have a fitted effect of over 30% in size
Summary of the method: as §1

[12] = Quantitative High-Throughput drug screen in 47 multiple myeloma cell lines against the NCATS MIPE library collection: U266_ATCC cell viability assay (AID 1919864); also: nearly all actives have a fitted effect of over 35% in size
Summary of the method: as §1

[13] = Quantitative High-Throughput drug screen in 47 multiple myeloma cell lines against the NCATS MIPE library collection: VP6_DJ cell viability assay (AID 1919867); details: ATP luminescence, 48 h; viability (% of DMSO): at 45.8 µM; also: nearly all actives have a fitted effect of over 40% in size
Summary of the method: as §1

[14] = Quantitative High-Throughput drug screen in 47 multiple myeloma cell lines against the NCATS MIPE library collection: NCIH929_DSMZ cell viability assay (AID 1918978); details: NCI-H929 myeloma viability, CellTiter-Glo ATP, 48 h; viability, % of control: at 45.8 µM; also: nearly all actives have a fitted effect of over 35% in size
Summary of the method: as §1

[15] = Quantitative High-Throughput drug screen in 47 multiple myeloma cell lines against the NCATS MIPE library collection: OCIMY1_PLB cell viability assay (AID 1918979); also: nearly all actives have a fitted effect of over 35% in size
Summary of the method: as §1

[16] = Quantitative High-Throughput drug screen in 47 multiple myeloma cell lines against the NCATS MIPE library collection: MM1R_ATCC cell viability assay (AID 1918981); also: nearly all actives have a fitted effect of over 35% in size
Summary of the method: as §1

[17] = Quantitative High-Throughput drug screen in 47 multiple myeloma cell lines against the NCATS MIPE library collection: XG6_PLB cell viability assay (AID 1919865); details: XG6 myeloma viability, CellTiter-Glo ATP luminescence, 48 h; viability (% of control): at 45.8 µM; also: nearly all actives have a fitted effect of over 40% in size
Summary of the method: as §1

[18] = Quantitative High-Throughput drug screen in 47 multiple myeloma cell lines against the NCATS MIPE library collection: PE2_PLB cell viability assay (AID 1919869); details: PE2_PLB myeloma cells viability, ATP luminescence, 48 h; viability (% of control): at 45.8 µM; also: nearly all actives have a fitted effect of over 35% in size
Summary of the method: as §1
Potency is read from the fitted curve at half-maximal effect.

COc1ccc(C2CNC(=O)C2)cc1OC1CCCC1 (stereo not given)
inconclusive: Potency [5] 0.0148 µM [rising, full curve, poor fit] | Potency [6] 0.0019 µM [rising, full curve, poor fit] | Potency [7] 0.469 µM [rising, full curve, poor fit] | Potency [8] 11.8 µM [rising, single point] | Potency [9] 26.4 µM [cytotoxic, single point] | Potency [10] 10.5 µM [rising, partial curve, poor fit] | Potency [11] 23.5 µM [cytotoxic, single point]
inactive: Potency [1] | Potency [2] | Potency [3] | Potency [4]

CCCCc1nc2cc(C=CC(=O)NO)ccc2n1CCN(CC)CC
active: Potency [1] 0.132 µM | Potency [5] 0.372 µM | Potency [8] 0.59 µM | Potency [12] 0.935 µM | Potency [13] 0.0105 µM

Nc1ncnc2c1ncn2[C@@H]1O[C@H](CO)[C@@H](O)[C@@H]1O
active: viability (% of DMSO) [6] 126% | Potency [13] 0.166 µM
inactive: viability [8] 106%
inconclusive: Potency [1] 26.4 µM [cytotoxic, single point] | Potency [2] 14.8 µM [cytotoxic, partial curve, poor fit] | Potency [3] 26.4 µM [cytotoxic, single point] | Potency [10] 10.5 µM [cytotoxic, full curve, poor fit]

Oc1cc(-c2nc(-c3ccccc3)[nH]c2-c2ccncc2)ccc1Cl
inconclusive: Potency [6] 4.69 µM [cytotoxic, full curve, poor fit]
active: Potency [1] 16.6 µM | Potency [3] 20.9 µM | Potency [4] 0.332 µM | Potency [5] 16.6 µM | Potency [7] 18.7 µM | Potency [8] 16.6 µM | Potency [12] 16.6 µM | Potency [9] 2.35 µM | Potency [13] 3.72 µM | Potency [10] 7.43 µM | Potency [11] 2.96 µM

COc1cc2ncnc(Nc3cccc(Cl)c3)c2cc1OC
inconclusive: Potency [14] 18.7 µM [cytotoxic, partial curve, poor fit] | Potency [15] 33.2 µM [cytotoxic, single point] | Potency [4] 16.6 µM [cytotoxic, partial curve, poor fit] | Potency [5] 20.9 µM [cytotoxic, partial curve, poor fit] | Potency [6] 16.6 µM [cytotoxic, partial curve, poor fit] | Potency [8] 0.0093 µM [cytotoxic, full curve, poor fit] | Potency [17] 0.0235 µM [cytotoxic, full curve, poor fit] | Potency [9] 0.0469 µM [cytotoxic, full curve, poor fit] | Potency [13] 1.32 µM [cytotoxic, full curve, poor fit] | Potency [18] 23.5 µM [cytotoxic, partial curve] | Potency [11] 0.209 µM [cytotoxic, full curve, poor fit]
active: Potency [16] 20.9 µM | Potency [3] 26.4 µM | Potency [7] 0.264 µM
inactive: Potency [10]

CCN(CC)CCCCNc1ncc2cc(-c3cc(OC)cc(OC)c3)c(NC(=O)NC(C)(C)C)nc2n1
inconclusive: Potency [1] 29.6 µM [cytotoxic, partial curve, poor fit] | Potency [8] 37.2 µM [cytotoxic, single point]
active: Potency [4] 14.8 µM | Potency [6] 18.7 µM | Potency [10] 16.6 µM

O=C(c1ccc(OCCN2CCCCC2)cc1)c1c(-c2ccc(O)cc2)sc2cc(O)ccc12
inconclusive: Potency [1] 23.5 µM [cytotoxic, partial curve, poor fit] | Potency [2] 16.6 µM [cytotoxic, partial curve] | Potency [3] 23.5 µM [cytotoxic, single point] | Potency [4] 20.9 µM [cytotoxic, partial curve, poor fit] | Potency [5] 9.35 µM [cytotoxic, partial curve, poor fit] | Potency [6] 9.35 µM [cytotoxic, partial curve, poor fit] | Potency [12] 23.5 µM [cytotoxic, partial curve] | Potency [9] 18.7 µM [cytotoxic, partial curve] | Potency [10] 37.2 µM [cytotoxic, single point] | Potency [18] 16.6 µM [cytotoxic, partial curve, poor fit]
active: Potency [7] 18.7 µM | Potency [13] 16.6 µM

CN1CCC(COc2cnc(-c3cccc(Cn4nc(-c5cccc(C#N)c5)ccc4=O)c3)nc2)CC1
active: Potency [2] 18.7 µM | Potency [13] 0.59 µM | Potency [10] 0.526 µM
inconclusive: Potency [4] 11.8 µM [rising, single point] | Potency [5] 0.0332 µM [cytotoxic, full curve, poor fit] | Potency [8] 33.2 µM [cytotoxic, single point]
inactive: Potency [1] | Potency [3]
